# Results as given in PubChem BioAssay AID1487 (National Center for Advancing Translational Sciences (NCATS), 2009).
# The list shows a part of the results. Shown are side measurements of this screen, not its main read-out; they come without a call. Compounds called inactive in the main read-out are mostly missing here. Words in brackets tell the shape of the fitted curve; partial curves, single points and poor fits give uncertain potencies.
# Test: qHTS Assay for Modulators of Lamin A Splicing
# Details: HeLa LMNA splicing GFP/RFP minigene ratio, 48 h
# How it was run: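 S3 HeLa stable clones carrying a lamin A-EGFP splicing minigene plus DsRed2 were seeded at 600 cells/well in Opti-MEM with 2% FBS, pin-dosed and incubated 48 h at 37°C. Acumen cytometry (488 nm) gave the GFP/RFP total-intensity ratio.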
# [1] = measured here: RFP viability control channel
# [2] = measured here: GFP splicing reporter channel
Compound,AC50 [1],AC50 [2]
Cc1cc(C(=O)CSc2nnc(C3COc4ccccc4O3)n2C)c(C)n1-c1ccc(F)cc1 (configuration not stated),"35.5 µM [rising, single point]",
CN(c1cccc(NC(=O)CSc2ccc(Cl)cc2)c1)S(C)(=O)=O,"35.5 µM [rising, single point]",
CCCCOc1ccc(C(=O)NCCc2csc3nc(-c4ccccc4F)nn23)cc1,"14.1 µM [falling, partial curve, poor fit]","8.91 µM [falling, partial curve, poor fit]"
COc1ccc(Cn2ccnc2)cc1Br,,"0.00501 µM [rising, full curve, poor fit]"
CN1C(=O)c2ccccc2N(C)C1c1ccc2c(c1)OCO2 (configuration not stated),"11.2 µM [rising, partial curve, poor fit]",
CCN(CC)S(=O)(=O)c1ccc(C2=NOC3(C2)N(C)c2ccccc2C3(C)C)cc1 (configuration not stated),"6.31 µM [rising, partial curve]","5.62 µM [rising, partial curve]"
CCOC(=S)SCC(=O)Nc1nc(-c2ccc(Br)cc2)cs1,"3.16 µM [falling, partial curve]","35.5 µM [falling, single point]"
COc1ccc(-c2[nH]ncc2/C=C(/C#N)C(=O)NC2CCCCCC2)cc1,"35.5 µM [rising, single point]",
O=c1cc(-c2ccccc2)[nH]c2ccccc12,"3.16 µM [rising, full curve]",
COc1ccc(CSc2nnnn2-c2ccccc2)cc1,"31.6 µM [rising, single point]",
Cc1ccccc1C(=O)Nc1ccc(C(=O)OCc2cc(=O)n3c4c(sc3n2)CCCC4)cc1,"11.2 µM [rising, partial curve]",
Brc1ccc(-c2csc(N3CCOCC3)n2)cc1,"10 µM [falling, partial curve]",
Cc1ccc2[nH]c3c(NCc4ccco4)ncnc3c2c1,"3.16 µM [rising, full curve]","2.82 µM [rising, single point]"
C=CCCC(=O)Nc1nc(C)c(-c2csc(Nc3cc(OC)ccc3OC)n2)s1,"1 µM [falling, single point]","5.62 µM [falling, single point]"
COc1ccc(CNC(=O)C2CC(c3ccc(OC)cc3)=NO2)cc1 (configuration not stated),"8.91 µM [falling, partial curve]",
CCN(CC)CCn1c(NCc2cc(OC)ccc2OC)nc2ccccc21,"20 µM [rising, single point]",
CCOc1cc(C(=O)Nc2ccc(F)cc2)cc(Br)c1OC,,"15.8 µM [falling, single point]"

# Of the compounds above, three contain an NH in an aromatic ring.
Compound,AC50 [1],AC50 [2]
COc1ccc(-c2[nH]ncc2/C=C(/C#N)C(=O)NC2CCCCCC2)cc1,"35.5 µM [rising, single point]",
O=c1cc(-c2ccccc2)[nH]c2ccccc12,"3.16 µM [rising, full curve]",
Cc1ccc2[nH]c3c(NCc4ccco4)ncnc3c2c1,"3.16 µM [rising, full curve]","2.82 µM [rising, single point]"
